Earlier results, collected in patent US11198731B2 (Exelixis, Inc., priority 2017, dated 2021).
For some of these results: For at least one compound, name, drawing or mass did not settle the structure. Some entries share one result that the patent states for a list of compounds.

How the values were obtained:
[1] = test system: previously-untreated advanced RCC of intermediate- or poor-risk; details: in vivo; cited from earlier work
[2] = test system: NSCLC without EGFR genetic alterations; details: % of subjects; cited from earlier work

Structure (SMILES)	Median OS [1] [months]	Median PFS per IRC [1] [months]	Median PFS per Investigator [1] [months]	Progression as best response [2]
CCN(CC)CCNC(=O)c1c(C)[nH]c(/C=C2\C(=O)Nc3ccc(F)cc32)c1C [sunitinib, reference compound]	21.2	5.3	5.6	
COc1cc2nccc(Oc3ccc(NC(=O)C4(C(=O)Nc5ccc(F)cc5)CC4)cc3)c2cc1OC [cabozantinib, N-(4-{[6,7-bis(methyloxy)quinolin-4-yl]oxy}phenyl)-N′-(4-fluorophenyl)cyclopropane-1,1-dicarboxamide]				23-24%
